{"source": "PubChem BioAssay AID1259308 – NCATS, 2017", "test": "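Knock-downs that increase output of a recombinant reporter protein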 (primary screen)", "cells": "human HEK293 embryonic kidney cells stably expressing firefly luciferase (HEK-CMV-Luc2-Hygro)", "knock-down reagent": "single siRNA against human genes, 0.8 pmol siRNA per well", "duration": "72 h", "detection": "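Reporter luminescence and viable-cell signal on separate replicate plates, given as percent of non-targeting control and median/MAD z-scores, plus per-cell luciferase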", "scale": "total luciferase, z-score and total luciferase, % of control: higher = more reporter protein produced", "call rule": "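Active when the median/MAD z-score for overall luciferase is greater than 3; a gene was taken forward for validation with new siRNAs if at least two of its three siRNAs passed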", "calls": "active = raised luciferase; inactive = no rise", "note": "In all, the deposit lists about 59,000 reagents; shown is a random part of them. Of all reagents, about 1,510 (2.6%) got an active call. 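Calls use total luciferase alone and ignore viability, so some active siRNAs may act by altering cell number.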 Reagents against one gene are numbered here. Not all columns of the deposit are shown. No sequences are given here."}
{"target": "RUSC2 (RUN and SH3 domain containing 2)", "reagent no.": 1, "total luciferase, z-score": 0.163, "total luciferase, % of control": 85.1, "activity call": "inactive"}
{"target": "RUSC2 (RUN and SH3 domain containing 2)", "reagent no.": 2, "total luciferase, z-score": 0.15, "total luciferase, % of control": 84.9, "activity call": "inactive"}
{"target": "RUSC2 (RUN and SH3 domain containing 2)", "reagent no.": 3, "total luciferase, z-score": 0.352, "total luciferase, % of control": 88.9, "activity call": "inactive"}
{"target": "ZNF815P (zinc finger protein 815, pseudogene)", "reagent no.": 1, "total luciferase, z-score": -0.381, "total luciferase, % of control": 74.3, "activity call": "inactive"}
{"target": "ZNF815P (zinc finger protein 815, pseudogene)", "reagent no.": 2, "total luciferase, z-score": 0.506, "total luciferase, % of control": 91.9, "activity call": "inactive"}
{"target": "ZNF815P (zinc finger protein 815, pseudogene)", "reagent no.": 3, "total luciferase, z-score": 0.188, "total luciferase, % of control": 85.6, "activity call": "inactive"}
{"target": "MCM2 (minichromosome maintenance complex component 2)", "reagent no.": 1, "total luciferase, z-score": 1.06, "total luciferase, % of control": 103, "activity call": "inactive"}
{"target": "MCM2 (minichromosome maintenance complex component 2)", "reagent no.": 2, "total luciferase, z-score": -0.675, "total luciferase, % of control": 68.5, "activity call": "inactive"}
{"target": "MCM2 (minichromosome maintenance complex component 2)", "reagent no.": 3, "total luciferase, z-score": -0.77, "total luciferase, % of control": 66.6, "activity call": "inactive"}
{"target": "FAM177A1 (family with sequence similarity 177 member A1)", "reagent no.": 1, "total luciferase, z-score": 0.498, "total luciferase, % of control": 91.8, "activity call": "inactive"}
{"target": "FAM177A1 (family with sequence similarity 177 member A1)", "reagent no.": 2, "total luciferase, z-score": 0.165, "total luciferase, % of control": 85.2, "activity call": "inactive"}
{"target": "FAM177A1 (family with sequence similarity 177 member A1)", "reagent no.": 3, "total luciferase, z-score": 0.719, "total luciferase, % of control": 96.2, "activity call": "inactive"}
{"target": "BKGD (beta-keto-L-gulonate decarboxylase)", "reagent no.": 1, "total luciferase, z-score": 0.799, "total luciferase, % of control": 97.8, "activity call": "inactive"}
{"target": "BKGD (beta-keto-L-gulonate decarboxylase)", "reagent no.": 2, "total luciferase, z-score": -0.466, "total luciferase, % of control": 72.6, "activity call": "inactive"}
{"target": "BKGD (beta-keto-L-gulonate decarboxylase)", "reagent no.": 3, "total luciferase, z-score": -0.122, "total luciferase, % of control": 79.5, "activity call": "inactive"}
{"target": "IRF2BPL (interferon regulatory factor 2 binding protein like)", "reagent no.": 1, "total luciferase, z-score": 0.252, "total luciferase, % of control": 86.9, "activity call": "inactive"}
{"target": "IRF2BPL (interferon regulatory factor 2 binding protein like)", "reagent no.": 2, "total luciferase, z-score": -0.845, "total luciferase, % of control": 65.1, "activity call": "inactive"}
{"target": "IRF2BPL (interferon regulatory factor 2 binding protein like)", "reagent no.": 3, "total luciferase, z-score": -0.197, "total luciferase, % of control": 78, "activity call": "inactive"}
{"target": "HR (HR lysine demethylase and nuclear receptor corepressor)", "reagent no.": 1, "total luciferase, z-score": 2.51, "total luciferase, % of control": 132, "activity call": "inactive"}
{"target": "HR (HR lysine demethylase and nuclear receptor corepressor)", "reagent no.": 2, "total luciferase, z-score": -1.28, "total luciferase, % of control": 56.3, "activity call": "inactive"}
{"target": "HR (HR lysine demethylase and nuclear receptor corepressor)", "reagent no.": 3, "total luciferase, z-score": -0.971, "total luciferase, % of control": 62.6, "activity call": "inactive"}
{"target": "MSRB3 (methionine sulfoxide reductase B3)", "reagent no.": 1, "total luciferase, z-score": -0.712, "total luciferase, % of control": 67.7, "activity call": "inactive"}
{"target": "MSRB3 (methionine sulfoxide reductase B3)", "reagent no.": 2, "total luciferase, z-score": 1.13, "total luciferase, % of control": 104, "activity call": "inactive"}
{"target": "MSRB3 (methionine sulfoxide reductase B3)", "reagent no.": 3, "total luciferase, z-score": -1.62, "total luciferase, % of control": 49.6, "activity call": "inactive"}
{"target": "SYNPO2 (synaptopodin 2)", "reagent no.": 1, "total luciferase, z-score": 0.223, "total luciferase, % of control": 86.3, "activity call": "inactive"}
{"target": "SYNPO2 (synaptopodin 2)", "reagent no.": 2, "total luciferase, z-score": -0.163, "total luciferase, % of control": 78.6, "activity call": "inactive"}
{"target": "SYNPO2 (synaptopodin 2)", "reagent no.": 3, "total luciferase, z-score": 1.78, "total luciferase, % of control": 117, "activity call": "inactive"}
{"target": "RASA1 (RAS p21 protein activator 1)", "reagent no.": 1, "total luciferase, z-score": 0.534, "total luciferase, % of control": 92.5, "activity call": "inactive"}
{"target": "RASA1 (RAS p21 protein activator 1)", "reagent no.": 2, "total luciferase, z-score": -0.222, "total luciferase, % of control": 77.5, "activity call": "inactive"}
{"target": "RASA1 (RAS p21 protein activator 1)", "reagent no.": 3, "total luciferase, z-score": 1, "total luciferase, % of control": 102, "activity call": "inactive"}
{"target": "CCDC13-AS2 (CCDC13 antisense RNA 2)", "reagent no.": 1, "total luciferase, z-score": -0.809, "total luciferase, % of control": 65.8, "activity call": "inactive"}
{"target": "CCDC13-AS2 (CCDC13 antisense RNA 2)", "reagent no.": 2, "total luciferase, z-score": 0.18, "total luciferase, % of control": 85.5, "activity call": "inactive"}
{"target": "CCDC13-AS2 (CCDC13 antisense RNA 2)", "reagent no.": 3, "total luciferase, z-score": -0.944, "total luciferase, % of control": 63.1, "activity call": "inactive"}
